Data on 1 substance can be found in PMC4525385.

Chains of the proteins cited; added tags and fusions are not shown. Lines headed by an entry give the natural chain unless they say otherwise; changes in a name come on top. Residues count along the entry.
UniProt P0ADE4: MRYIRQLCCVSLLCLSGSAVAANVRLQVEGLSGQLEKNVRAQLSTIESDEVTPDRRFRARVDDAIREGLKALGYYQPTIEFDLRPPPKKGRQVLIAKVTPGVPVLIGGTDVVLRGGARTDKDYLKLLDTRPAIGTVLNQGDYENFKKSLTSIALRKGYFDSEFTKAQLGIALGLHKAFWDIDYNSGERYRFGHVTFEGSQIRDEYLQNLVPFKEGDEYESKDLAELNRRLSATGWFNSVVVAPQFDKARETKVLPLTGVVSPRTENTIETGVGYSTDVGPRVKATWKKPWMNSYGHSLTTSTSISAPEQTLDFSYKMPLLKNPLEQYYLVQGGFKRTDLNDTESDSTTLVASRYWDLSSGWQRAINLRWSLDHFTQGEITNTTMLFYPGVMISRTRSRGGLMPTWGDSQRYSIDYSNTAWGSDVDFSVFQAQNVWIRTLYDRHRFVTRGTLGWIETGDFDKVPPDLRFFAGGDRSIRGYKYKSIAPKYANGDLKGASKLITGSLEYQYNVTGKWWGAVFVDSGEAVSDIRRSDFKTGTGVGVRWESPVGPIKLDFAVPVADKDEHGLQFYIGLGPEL
UniProt P39180, residues 53-1039: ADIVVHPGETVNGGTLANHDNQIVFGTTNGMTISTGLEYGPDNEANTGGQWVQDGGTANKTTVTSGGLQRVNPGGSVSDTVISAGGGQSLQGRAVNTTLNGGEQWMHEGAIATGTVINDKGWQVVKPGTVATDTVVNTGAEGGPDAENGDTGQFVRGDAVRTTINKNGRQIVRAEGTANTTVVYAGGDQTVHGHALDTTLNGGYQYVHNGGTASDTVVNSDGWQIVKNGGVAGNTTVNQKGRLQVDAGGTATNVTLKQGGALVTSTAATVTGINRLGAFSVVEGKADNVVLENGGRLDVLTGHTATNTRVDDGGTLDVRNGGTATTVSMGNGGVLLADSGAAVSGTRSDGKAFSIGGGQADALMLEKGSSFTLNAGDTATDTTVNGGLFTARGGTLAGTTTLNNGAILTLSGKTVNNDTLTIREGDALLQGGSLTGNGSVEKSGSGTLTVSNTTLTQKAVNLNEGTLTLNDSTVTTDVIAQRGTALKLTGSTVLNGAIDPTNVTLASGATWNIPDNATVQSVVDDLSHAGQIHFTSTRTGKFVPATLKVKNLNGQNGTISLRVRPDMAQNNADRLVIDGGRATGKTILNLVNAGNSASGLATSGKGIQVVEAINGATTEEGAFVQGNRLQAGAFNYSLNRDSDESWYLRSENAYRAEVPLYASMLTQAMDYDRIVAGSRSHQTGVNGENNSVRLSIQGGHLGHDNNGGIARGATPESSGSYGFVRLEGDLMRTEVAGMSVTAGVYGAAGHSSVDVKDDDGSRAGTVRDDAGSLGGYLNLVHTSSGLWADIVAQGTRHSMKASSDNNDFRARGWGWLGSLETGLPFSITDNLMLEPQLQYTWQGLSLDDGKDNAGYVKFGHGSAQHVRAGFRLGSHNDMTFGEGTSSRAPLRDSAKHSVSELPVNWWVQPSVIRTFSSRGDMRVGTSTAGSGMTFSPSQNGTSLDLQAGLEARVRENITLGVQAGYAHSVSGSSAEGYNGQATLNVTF

These are yes or no findings as the source states them, for the method shown. For part of these data: Binding can be weak; no strength is given.

What all share (test): QCM-D; histidine-tagged TamA or deletion form attached to a Ni-ANTA gold surface, POPC membrane layer reconstituted around it; then 0.5 mL of 0.2 mg/ml TamB (step 3) and 0.5 mL of 0.2 mg/ml urea-denatured Ag43 (step 4) added one after the other, washes with 20 mM TRIS, 150 mM NaCl; 25 °C; both purified
The target of assay [1] is TamA(ΔPOTRA1–3) (E. coli) (UniProt P0ADE4).
Assay [2] deals with TamA(ΔPOTRA1), histidine-tagged (pBADTamA-C-term-6xHisΔP1) (E. coli) (UniProt P0ADE4).
Assay [3] addresses TamA(ΔPOTRA1–2), histidine-tagged (pBADTamA-C-term-6xHisΔP1–2) (E. coli) (UniProt P0ADE4).

For the substance “Ag43, urea-denatured (from UniProt P39180 53-1039)”, the binding entry in assay [1] was “no binding (tested: 0.2 mg/ml)”; in assay [2], “binds”; in assay [3] it was “no binding (tested: 0.2 mg/ml)”.
